From PubChem BioAssay AID540276 (National Center for Advancing Translational Sciences (NCATS), 2011)
Where “and” joins values, the source holds several entries; their conditions need not be identical. Identical values can stand only once. Screen size: about 300,000 compounds; about 5,400 (1.8%) were called active. The shares of active, inactive and inconclusive entries below differ from those in the screen. Calls come from the whole dose curve; tested in HEK293 cells. A potency beside an inconclusive call is a rough fit, not a confirmed value. Some structures have more than one record in an assay (separate samples or runs), and their calls can disagree.

Experiment: qHTS for inhibitors of binding or entry into cells for Marburg Virus
Details: Marburg virus pseudotyped entry inhibition, cell reporter; series mostly up to 37.8 µM
Potency is the fitted concentration of half-maximal effect.

SMILES | Potency
COc1cc2c(cc1OC)CN(C(=O)CSc1nc(C)cc(C)c1C#N)CC2 | inconclusive: 7.08 µM [inhibitor, partial curve, poor fit]
CCCCN(CC)S(=O)(=O)c1ccc(C(=O)Nc2nnc(COC)o2)cc1 | inconclusive: 35.5 µM [inhibitor, single point]
CC1CCN(S(=O)(=O)c2ccc3c(c2)N(CC(=O)NCCc2ccc(Cl)cc2)C(=O)CO3)CC1 | inconclusive: 20 µM [inhibitor, single point]
O=C(/C=C/c1ccccc1[N+](=O)[O-])N1CCN(C(=O)c2ccco2)CC1 | inconclusive: 6.31 µM [inhibitor, single point]
Cc1c(Cl)cccc1NS(=O)(=O)c1ccc(-c2ccc(=O)[nH]n2)o1 | inconclusive: 6.31 µM [inhibitor, partial curve, poor fit]
CCNC(=O)CCCOc1ccc(Cl)cc1Cl | inconclusive: 14.6 µM [activator, single point]
CN(C)CCN1C(=O)c2oc3ccccc3c(=O)c2C1c1cccc(Br)c1 (configuration not stated) | inactive
Cc1c(Cl)cccc1Nc1nc(N)nc(CSc2nc3ccccc3s2)n1 | inconclusive: 2 µM [inhibitor, full curve, poor fit] and inconclusive: 1.12 µM [inhibitor, full curve, poor fit]
CCN(C(=O)c1cccc(NC(=O)c2ccccc2)c1)C1CCCCC1 | inconclusive: 11.2 µM [inhibitor, partial curve, poor fit]
Cc1cc(NC(=O)C(C)SCC(=O)Nc2cc(C(F)(F)F)ccc2N2CCCCC2)no1 (configuration not stated) | inconclusive: 35.5 µM [inhibitor, partial curve, poor fit]
COCCOC(=O)C1=C(C)NC(=O)NC1c1ccc(OC(=O)c2ccco2)c(OC)c1 (configuration not stated) | inactive
COC(=O)/C=C1\S/C(=N\N=C\CC(=O)OC)NC1=O | inactive
Cc1ccc(Cl)cc1NC(=O)CSc1nncn1-c1ccccn1 | inactive
O=c1[nH][nH]c(-c2ccccc2)c1-c1ccccc1 | inactive
CCCn1c(SCC(=O)NC(C)(C)C)nnc1-c1ccco1 | inactive
COc1ccccc1NC(=O)C(NC(=O)OC(C)(C)C)C(C)OCc1ccccc1 (configuration not stated) | inconclusive: 23.1 µM [inhibitor, partial curve, poor fit]
CCC(C(=O)OCC(=O)Nc1ccc(C(=O)Nc2ccc(OC)cc2)cc1)c1ccccc1 (configuration not stated) | inconclusive: 17.8 µM [inhibitor, single point]
COc1ccccc1C(=O)Nc1cccc2c1CCCC2 | inconclusive: 35.5 µM [inhibitor, single point]
Cc1cc(C(=O)NN=C2CCCCCCC2)c2ccccc2n1 | inactive
COc1ccc(C(=O)C=CNNC(=O)c2ccc(Cl)cc2)cc1 | inconclusive: 7.08 µM [inhibitor, partial curve, poor fit]
CN(Cc1ccc2nonc2c1)Cc1nc(CC2CC2)no1 | inactive
Cc1noc(C)c1CSCC(=O)Nc1nc2c(F)cc(F)cc2s1 | inactive
O=C(COC(=O)c1ccc(F)cc1F)c1ccc[nH]1 | inconclusive: 5.62 µM [activator, single point]

SMILES | Potency
O=C(CN1CCN(c2ccccc2F)CC1)Nc1ccc2c(c1)CCC2 | inconclusive: 18.4 µM [activator, partial curve, poor fit]
O=C(N/N=C/c1ccoc1)c1ccccc1Br | inactive
CCn1nc(C)cc1C(=O)n1nc(C)c(Sc2ncccn2)c1C | inconclusive: 3.98 µM [inhibitor, partial curve, poor fit]
CCCNC(=O)c1ccc(OC)cc1OC | inactive
O=C(O)c1ccc(Nc2c3ccccc3nc3ccccc23)cc1 | inactive
CCN1CCN(c2ccc(S(=O)(=O)N3CCCCC3)cc2NC(=O)C(C)Oc2ccc(F)cc2)CC1 (configuration not stated) | inconclusive: 20 µM [inhibitor, single point]
O=C1CC(N2CCOCC2)=NN1c1ccc([N+](=O)[O-])cc1 | inactive
CC1=CC(C)(C)N(C(=O)CSc2nnc(-c3ccc(C)cc3)o2)c2ccc(C)cc21 | inconclusive: 10 µM [inhibitor, partial curve, poor fit]
Oc1ccc(O)cc1 | active: 7.94 µM
O=C(c1ccc(C(=O)N2CCOCC2)s1)N1CCOCC1 | inactive
COc1cc(/C=C2\SC(=S)N(CCCCC(=O)O)C2=O)ccc1OS(=O)(=O)c1ccc(C)cc1 | inconclusive: 6.31 µM [inhibitor, partial curve, poor fit]
C=CCN(C(=O)c1csnn1)C(C(=O)NC1CCCCC1)c1ccc(C)cc1 (configuration not stated) | inconclusive: 35.5 µM [inhibitor, single point]
Cn1nc(C(C)(C)C)cc1C(=O)Sc1cccc(Br)c1 | inactive
CC(=O)c1cccc(NS(=O)(=O)c2ccc(N/C=C\C(=O)c3ccc(C)cc3)cc2)c1 | inconclusive: 6.31 µM [inhibitor, single point]
CC(C)(C)c1ccc(NC(=O)c2ccccc2)c([N+](=O)[O-])c1 | inconclusive: 11.2 µM [inhibitor, single point]
COc1ccc2c(c1)O[C@@H](c1ccc3c(c1)OCO3)[C@H](OC(=O)N[C@H](C)C1CCCCC1)C2=O | inactive
Cc1cccc(-c2cc3nc(C)c(C)c(NCCCn4ccnc4)n3n2)c1 | inconclusive: 5.62 µM [inhibitor, full curve, poor fit]
COCCn1c(C)cc(C2=NNC(=NC3CC3)SC2)c1C | active: 0.316 µM
COC(=O)C1=C(C)N(Cc2ccccc2)C(=NCc2ccccc2)N[C@H]1c1ccccc1 | inconclusive: 5.31 µM [inhibitor, single point]
C=CCC(=O)OCC(=O)Nc1ccc(Oc2ccccc2)cc1 | inactive
COc1ccc(Cl)cc1NC(=O)C/C(C)=N/NC(=O)Cc1ccccc1 | inactive
Cc1cccc(-c2nnc3n(CCc4ccccc4)c(=O)c4ccccc4n23)c1 | inconclusive: 3.55 µM [activator, single point]
CC(Cc1ccccc1)NC(=O)CC(c1ccccc1)c1ccccc1O (configuration not stated) | inconclusive: 1.12 µM [inhibitor, partial curve, poor fit]

SMILES | Potency
O=C(OCCCCN1C(=O)c2ccccc2C1=O)c1ccc(S(=O)(=O)N2CCCC2)cc1 | inconclusive: 28.2 µM [activator, partial curve, poor fit]
CCC1(C)CC2(CCCN(CCC(O)(c3ccccc3)c3ccccc3)C2)CCO1 (configuration not stated) | inconclusive: 17.8 µM [inhibitor, partial curve, poor fit]
COc1cccc2cc(-c3ccccc3)c(=O)oc12 | inconclusive: 8.91 µM [inhibitor, partial curve, poor fit]
Cc1ccc(C2CC(C(F)F)n3ncc(C(=O)Nc4cnn(Cc5ccccc5C)c4)c3N2)cc1 (configuration not stated) | inconclusive: 35.5 µM [inhibitor, single point]
O=C(NCCc1ccc(F)cc1)c1n[nH]c2ccccc12 | inconclusive: 35.5 µM [inhibitor, single point]
CC(=O)N1CCc2cc(S(=O)(=O)NCCC(=O)Nc3cc(C)cc(C)c3)ccc21 | inconclusive: 5.62 µM [inhibitor, single point]
Nc1c(C(=O)NCc2ccc3c(c2)OCO3)c2nc3ccccc3nc2n1CCCN1CCOCC1 | inconclusive: 29.1 µM [inhibitor, single point]
CCCN1CCN(C(c2cc3cc(OCC)ccc3[nH]c2=O)c2nnnn2C2CCCCC2)CC1 (configuration not stated) | inconclusive: 18.3 µM [inhibitor, single point]
COc1ccc2c(Sc3ccccc3)c(C(=O)NCc3ccc(OC(C)C)cc3)[nH]c2c1 | inconclusive: 5.62 µM [activator, single point]
Cc1cccc(NC(=O)c2ccc3ccccc3n2)n1 | inconclusive: 1.41 µM [activator, partial curve, poor fit]
CCc1c(C)sc(NC(=O)c2cc(-c3ccc(OC)cc3)on2)c1C#N | inconclusive: 6.31 µM [inhibitor, single point]
CC/C(C)=N\Nc1nc(-c2cc3cc(OC)ccc3oc2=O)cs1 | inconclusive: 7.94 µM [inhibitor, single point]
CC(=O)c1c(C)[nH]c(C(=O)COC(=O)c2ccc3c(=O)n4c(nc3c2)CCC4)c1C | inactive
CO/N=C/CC(=O)c1cnc(-c2ccc(Cl)cc2)s1 | inactive
O=C(Nc1nc(-c2ccc(-c3ccccc3)cc2)cs1)C1=COCCO1 | inconclusive: 0.447 µM [activator, partial curve, poor fit]
COc1ccccc1-c1cc(C(F)(F)F)nc(S(=O)(=O)CCCC(=O)Nc2cc(C)ccc2O)n1 | inconclusive: 20 µM [inhibitor, partial curve, poor fit]
Cc1ccc(C(C2=C(O)CC(C)(C)CC2=O)C2C(=O)CC(C)(C)CC2=O)s1 (configuration not stated) | inactive
CCCNC(=O)c1ccccc1NC(=O)Cc1ccc(OC)c(S(=O)(=O)N2CCOCC2)c1 | inconclusive: 35.5 µM [activator, single point]
CCN1CCN(c2ccc([N+](=O)[O-])cc2S(=O)(=O)N2CCOCC2)CC1 | inconclusive: 35.5 µM [activator, single point]
Cc1n[nH]c(=O)c2c(NC(=O)CSc3ccccc3Cl)oc(C)c12 | inconclusive: 12.6 µM [activator, single point]
CCCCn1c(=N)n(CC(O)COc2ccccc2)c2ccccc21 (configuration not stated) | inconclusive: 17.8 µM [inhibitor, single point]
